{"source": "PubChem BioAssay AID651640", "about": "(Broad Institute, 2012)", "note": "The campaign covered roughly 350,000 compounds. About 6,000 (1.7%) were called active. Inconclusive results, whose numbers are uncertain, are shown with a selection of clear calls. No stated cut-off is given here; in the data, active means CPE inhibition above about 20% (passing the limit was not always enough); inconclusive means no clear call, values can overlap the other calls; tested in BHK-21 cells."}
{"test": "protection of cells from dengue 2 killing – plate reader, single concentration, primary screen (AID 651640);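 further: 0% = median of neutral control wells and 100% = median of positive control wells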", "conditions": "DENV2-infected cells, cytopathic effect rescue, at 9.99 µM, active compounds read high"}
{"smiles": "O=C(Nc1ccccc1F)N1CC(=O)N2[C@@H](CO)[C@@H](c3ccc(C#CC4CC4)cc3)[C@@H]2C1", "CPE inhibition": "inconclusive: 39.4%"}
{"smiles": "C[C@@H]1CN([C@@H](C)CO)C(=O)c2cc(NC(=O)Nc3ccc(F)cc3)ccc2O[C@@H](C)CCCCO[C@H]1CN(C)Cc1ccc2c(c1)OCO2", "CPE inhibition": "active: 22%"}
{"smiles": "COc1ccc(-c2nc(C3CCCCC3)c3cc(OC)ccc3n2)cc1", "CPE inhibition": "inconclusive: 61.7%"}
{"smiles": "CCC(=O)N(C)C[C@@H]1Oc2ncc(-c3ccc(C)cc3)cc2C(=O)N([C@H](C)CO)C[C@@H]1C", "CPE inhibition": "inactive: -10.8%"}
{"smiles": "N#C[C@@H]1[C@H](c2ccc(C#Cc3ccccc3F)cc2)[C@@H](CO)N1C(=O)C1CC1", "CPE inhibition": "active: 81.7%"}
{"smiles": "C[C@H](CO)N1C[C@H](C)[C@H](CN(C)Cc2ccc(C(F)(F)F)cc2)Oc2c(NC(=O)c3ccc(-c4nccs4)cc3)cccc2C1=O", "CPE inhibition": "inactive: 2.67%"}
{"smiles": "O=C(OCc1ccccc1)N1CCN(C(c2ccnc3ccccc23)c2nnnn2-c2ccc3c(c2)OCCO3)CC1", "note": "(configuration not stated)", "CPE inhibition": "inconclusive: 61.4%"}
{"smiles": "CC[C@]12C(=O)N(C)C[C@H]([C@@H]3C(=O)N(C)C(=O)[C@@H]31)N2C(=O)c1ccc(F)cc1", "CPE inhibition": "inconclusive: 24.5%"}
{"smiles": "C[C@H](CO)N1C[C@H](C)[C@@H](CN(C)C(=O)Nc2ccccc2)Oc2ccc(NC(=O)Nc3ccccc3)cc2C1=O", "CPE inhibition": "inconclusive: 67.9%"}
{"smiles": "C[C@@H]1CCCCO[C@H](CN(C)S(C)(=O)=O)[C@@H](C)CN([C@H](C)CO)C(=O)c2cc(NC(=O)C3CCCCC3)ccc2O1", "CPE inhibition": "inconclusive: 61.8%"}
{"smiles": "CC1(C)CC(=O)N(CC(=O)O)c2ccccc2S1(=O)=O", "CPE inhibition": "active: 33.8%"}
{"smiles": "O=C(CN1C(=O)NC2(CCCCCC2)C1=O)Nc1ccccc1[N+](=O)[O-]", "CPE inhibition": "inconclusive: 23.8%"}
{"smiles": "C[C@H](NC(=O)c1nc[nH]c1C(=O)N1CCN(c2ccccc2)CC1)C(=O)OC(C)(C)C", "CPE inhibition": "inconclusive: 29.4%"}
{"smiles": "COc1ccc(C(=O)NNC(=O)C(=O)N2CCCCC2)cc1OC", "CPE inhibition": "inconclusive: 23.7%"}
{"smiles": "COC(=O)[C@@H](Cc1ccccc1)NC(=O)/C=C/[C@H]1O[C@@H](n2cnc3c(NC(=O)c4ccccc4)ncnc32)[C@H](O)[C@@H]1O", "CPE inhibition": "inactive: 4.82%"}
{"smiles": "O=C(O)c1cccc(NC(=S)NC(=O)c2ccc(-c3ccccc3)cc2)c1", "CPE inhibition": "inactive: -6.21%"}
{"smiles": "COC(=O)c1cc(CSC(=N)N)ccc1OCCC(C)C", "CPE inhibition": "inconclusive: 30.2%"}
{"smiles": "COc1ccc(-c2ccccc2)cc1NC(=O)[C@@H]1O[C@H](CO)[C@H](O)[C@H](O)[C@H]1O", "CPE inhibition": "active: 32%"}
{"smiles": "Cc1ccc(S(=O)(=O)N2CC[C@@H]3[C@H]2c2cc(Br)ccc2N[C@@H]3CO)cc1", "CPE inhibition": "inactive: 10.8%"}
{"smiles": "CCCc1cc(C(=O)N2CCCC(N3CCN(c4ccc(F)cc4)CC3)C2)no1", "note": "(configuration not stated)", "CPE inhibition": "inconclusive: 30.5%"}
{"smiles": "CCOC(=O)CC[C@H](NC(=O)Cn1cnc2c(OCc3ccccc3)ncnc21)C(=O)OCC", "CPE inhibition": "active: 26.5%"}
{"smiles": "CCCN(C)C[C@H]1Oc2cc(C#Cc3ccccn3)ccc2S(=O)(=O)N([C@H](C)CO)C[C@H]1C", "CPE inhibition": "inactive: 1.8%"}
{"smiles": "Cc1ccc(S(=O)(=O)N2CCCCC2)cc1NC(=O)COC(=O)CNC(=O)c1cc(Cl)cc([N+](=O)[O-])c1", "CPE inhibition": "inconclusive: 70.3%"}
{"smiles": "CC1=C(C(=O)N(C(C)C)C(C)C)CC(CC(=O)NCCCN(C)C)C(=O)N1CCCN1CCCC1=O", "note": "(configuration not stated)", "CPE inhibition": "inconclusive: 31%"}
{"smiles": "O=C(OCC(=O)N1CCN(C(=O)COC(=O)c2ccccc2NCCO)CC1)c1ccccc1NCCO", "CPE inhibition": "inconclusive: 31%"}
{"smiles": "COc1ccc(C=CC(=O)c2ccc(OC)c(OC)c2)cc1O", "CPE inhibition": "inconclusive: 49.8%"}
{"smiles": "CCCc1c(C(=O)N/N=C/c2ccc3c(c2)OCO3)nnn1-c1nonc1N", "CPE inhibition": "inconclusive: 38.6%"}
{"smiles": "NS(=O)(=O)c1cnccc1Nc1cccc(Br)c1", "CPE inhibition": "inconclusive: 30.1%"}
{"smiles": "Cc1ccc(S(=O)(=O)N(C)C)cc1NC(=O)COC(=O)CNC(=O)c1cccs1", "CPE inhibition": "inconclusive: 26.3%"}
{"smiles": "O=C(C[C@@H]1CC[C@H](NC(=O)c2ccc(F)cc2)[C@H](CO)O1)NCCc1ccccc1", "CPE inhibition": "inconclusive: 34.8%"}
{"smiles": "C[C@@H]1CCCCO[C@H](CN(C)Cc2ccccc2)[C@@H](C)CN([C@@H](C)CO)C(=O)c2cc(NC(=O)CCC(F)(F)F)ccc2O1", "CPE inhibition": "inactive: 8.97%"}
{"smiles": "C/C(N)=C(/C#N)C(=O)COC(=O)CNS(=O)(=O)c1c(F)cccc1F", "CPE inhibition": "inactive: -3.17%"}
{"smiles": "CCOC(=O)C1=C(COC(=O)/C=C/c2ccc(OCC)c(OC)c2)NC(=O)NC1C", "note": "(configuration not stated)", "CPE inhibition": "inconclusive: 37.8%"}
{"smiles": "CCOC(=O)c1ccc(NS(=O)(=O)c2ccc3c(c2)n(C)c(=O)n3C)cc1", "CPE inhibition": "inconclusive: 39.8%"}
{"smiles": "COCC(=O)N1[C@H](C(=O)NCc2ccccc2F)[C@@H](CO)[C@@H]2Cn3c(cccc3=O)[C@@H]21", "CPE inhibition": "inconclusive: 63.5%"}
{"smiles": "Cc1ccc(N(CC(=O)NCCc2ccccc2)C(=O)c2csnn2)cc1", "CPE inhibition": "inactive: -3.69%"}
{"smiles": "CCC(NC(=O)c1cc(COc2ccc(F)cc2Cl)on1)c1ccncc1", "note": "(configuration not stated)", "CPE inhibition": "inconclusive: 22.8%"}
{"smiles": "CCCCCCCCN1C(=O)[C@H](CC(=O)NCCCOC)C[C@@]2(C(=O)OCC)CCCC=C12", "CPE inhibition": "inconclusive: 46.1%"}
{"smiles": "CC1(C(=O)NS(=O)(=O)c2ccccc2Cl)CCN1C(=O)CC(c1ccccc1)c1ccccc1", "note": "(configuration not stated)", "CPE inhibition": "inactive: 7.21%"}
{"smiles": "CCNC(=O)C[C@H]1CC[C@H]2[C@H](COc3ccc(NC(=O)Nc4cccc(OC)c4)cc3C(=O)N2C)O1", "CPE inhibition": "inconclusive: 32.4%"}
{"smiles": "NC(=S)Nc1ccc(C(F)(F)F)cc1Cl", "CPE inhibition": "inconclusive: 40.6%"}
{"smiles": "COc1ccc(N2CCN(C(=O)CN3C(=O)NC(C)(C4CC4)C3=O)CC2)cc1", "note": "(configuration not stated)", "CPE inhibition": "inconclusive: 20.9%"}
{"smiles": "COc1ccccc1NS(=O)(=O)c1ccc(C(=O)N2CCCC(C(F)(F)F)C2)cc1", "note": "(configuration not stated)", "CPE inhibition": "inconclusive: 54.5%"}
{"smiles": "C[C@@H]1CN([C@H](C)CO)C(=O)c2cccc(NC(=O)Nc3ccc(C(F)(F)F)cc3)c2O[C@H]1CN(C)C(=O)Nc1ccc(C(F)(F)F)cc1", "CPE inhibition": "inconclusive: 23.9%"}
{"smiles": "CN1CCCCN2[C@@H](CO)[C@@H](c3ccc(-c4ccc(F)cc4)cc3)[C@@H]2C1", "CPE inhibition": "inconclusive: 21.7%"}
{"smiles": "CC(C)NC(=O)N(C)C[C@@H]1Oc2ncc(-c3cccc(C#N)c3)cc2C(=O)N([C@H](C)CO)C[C@H]1C", "CPE inhibition": "inactive: -3.32%"}
{"smiles": "O=C(c1ccccc1)N1[C@H](CO)[C@@H](c2ccccc2)C12CN(Cc1nccs1)C2", "CPE inhibition": "active: 26.6%"}
{"smiles": "C=C/C=C/[C@@H]1C(=C)CN2[C@H]1[C@H](Cc1ccccc1)OC(=O)C21CCCC1", "CPE inhibition": "inactive: -1.76%"}
{"smiles": "COc1ccc(C2(CNC(=O)c3cccc([N+](=O)[O-])c3)CCCCC2)cc1OC", "CPE inhibition": "inconclusive: 21.4%"}
{"smiles": "CC(=O)/C(N=Nc1nc2c([nH]1)c(=O)n(C)c(=O)n2C)=C(\\C)O", "CPE inhibition": "inconclusive: 33%"}
{"smiles": "Nc1nnc(N)c2ccccc12", "CPE inhibition": "inactive: -1.84%"}
{"smiles": "O=C(Nc1cc(Cl)ccc1-n1cncn1)c1ccccc1OC(F)F", "CPE inhibition": "inconclusive: 43.5%"}
{"smiles": "O=C(NCC1CC1)[C@@H]1[C@@H](CO)[C@@H]2Cn3c(ccc(-c4cccnc4)c3=O)[C@H]1N2C(=O)C1CCCCC1", "CPE inhibition": "inactive: -5.17%"}
{"smiles": "CCN(Cc1ccccc1)S(=O)(=O)c1ccc(C(=O)N(CCCN(C)C)c2nc3cc(C)cc(C)c3s2)cc1", "CPE inhibition": "active: 78.2%"}
{"smiles": "Cc1ccc(C(=O)NN2C(=O)/C(=C/c3cn(C)c4ccccc34)SC2=S)cc1", "CPE inhibition": "inconclusive: 88.4%"}
{"smiles": "COCCNC(=O)COc1ccc(N(C)S(=O)(=O)c2ccc3ccccc3c2)cc1", "CPE inhibition": "inconclusive: 25.1%"}
{"smiles": "CCCC[C@H]1C2=C3[C@@H](CC(C(=O)OC)=C[C@@H](C(=O)OC)[C@H]3C(C)(C)C2=O)n2c(=O)n(-c3ccccc3)c(=O)n21", "CPE inhibition": "inconclusive: 56.7%"}
{"smiles": "COc1cc(OC)c(OC)cc1C#N", "CPE inhibition": "inconclusive: 26.5%"}
{"smiles": "CN1C(=O)c2cc(NS(=O)(=O)c3ccc(Cl)cc3)ccc2OC[C@@H]2O[C@H](CC(=O)N3CCc4ccccc4C3)CC[C@H]21", "CPE inhibition": "active: 39.9%"}
{"smiles": "c1ccc(OCCCCN2CCCCC2)cc1", "CPE inhibition": "inconclusive: 51.4%"}
{"smiles": "Cc1cccc(C)c1NC(=O)CCCN1C(=O)C(c2ccccc2)Oc2cccnc21", "note": "(configuration not stated)", "CPE inhibition": "inconclusive: 37.7%"}
{"smiles": "COc1ccc(Nc2cc(C)c3ccccc3n2)cc1", "CPE inhibition": "inconclusive: 33%"}
{"smiles": "CCN(CC)C1CCN(Cc2c(C(=O)N3CCCCCCC3)nc3ccc(Cl)cn23)C1", "note": "(configuration not stated)", "CPE inhibition": "active: 35%"}
{"smiles": "Cc1ccc(S(=O)(=O)N[C@@H]2CC[C@H](CCn3cc(C4CCCCC4)nn3)O[C@H]2CO)cc1", "CPE inhibition": "inactive: 5.14%"}
{"smiles": "CC(C)(CO)CNc1ccn2nccc2n1", "CPE inhibition": "inconclusive: 23.4%"}
{"smiles": "C[C@@H]1CN([C@H](C)CO)C(=O)c2cc(NC(=O)CCC(F)(F)F)ccc2O[C@@H](C)CCCCO[C@H]1CN(C)Cc1ccc(Cl)c(Cl)c1", "CPE inhibition": "active: 71.5%"}
{"smiles": "C[C@H](CO)N1C[C@H](C)[C@H](CN(C)C(=O)c2ccccc2)OCCCC[C@H](C)Oc2ccc(NS(=O)(=O)c3ccc(F)cc3)cc2C1=O", "CPE inhibition": "inactive: -3.16%"}
{"smiles": "COCC(=O)N(C)C[C@@H]1Oc2ncc(C#CC(C)(C)O)cc2C(=O)N([C@@H](C)CO)C[C@@H]1C", "CPE inhibition": "active: 23.5%"}
{"smiles": "COc1ccc(C(=O)c2c(-c3ccc(OC)cc3)oc3ccc(-c4cc(OC)c(OC)c(OC)c4)cc23)cc1", "CPE inhibition": "inconclusive: 103%"}
{"smiles": "CC(C)(C)NC(=O)NC(=O)COC(=O)c1cc[n+]([O-])cc1", "CPE inhibition": "inconclusive: 57.5%"}
{"smiles": "CC(CNC(=O)CC[C@H]1O[C@@H](n2ccc(=O)[nH]c2=O)[C@H](O)[C@@H]1O)c1ccccc1", "note": "(some centres not stated)", "CPE inhibition": "inconclusive: 43.2%"}
{"smiles": "O=C(CCc1nc2ccccc2c(=O)[nH]1)Nc1ccccc1N1CCCCC1", "CPE inhibition": "inconclusive: 41.9%"}
